Reference: doi:10.1101/2023.07.06.547837
Results are given in words; binding and its absence hold for the method and conditions named. In cells and extracts the contact can be indirect. Some entries that bind do so weakly or less than the wild type. Tags and fused reporters may be left off the sequences shown.

B1: FLAG-tagged Mon1a (protein, UniProt Q6PDG8 1-556)
chain: MAADMQRKRSSECPEGTLAPSNGQSVERAESPTPGLTQGTEPGAGQEGAMFVHTRSYEDLTELEDREASGDSPKECVGSPPPLATDMRQISQDFSELSTQLTGVARDLQEEMLPGSSEDWPEPQGAAGRGAATEPSQEGSTEGEEEDATEAWRLHQKHVFVLSEAGKPVYSRYGSEEALSSTMGVMVALVSFLEADKNAIRSIHADGYKVVFVRRSPLVLVAVARTRQSAQELAQELLYIYYQILSLLTGAQLSHIFQQKQNYDLRRLLSGSERITDNLLQLMARDPSFLMGAARCLPLAAAVRDTVSASLQQARARSLVFSILLAHNQLVALVRRKDQFLHPIDLHLLFNLISSSSSFREGEAWTPVCLPKFNAAGFFHAHISYLEPDTDLCLLLISTDREDFFAVSDCRRRFQERLRKRGTHLALREALRTPYYSVAQVGIPDLRHFLYKSKSSGLFTSPEIEAPYSSEEEQERLLGLYQYLHSRAHNASRPLKTIYYTGPNENLLAWVTGAFELYMCYSPLGTKASAVSAIHKLMRWIRKEEDRLFILTPLTY
B2: endogenous Fcho2 (protein, UniProt Q3UQN2 1-809)
chain: MVMAHFVENFWGEKNNGFDVLYHNMKHGQISTKELADFVRERATIEEAYSRSMTKLAKSASNYSQLGTFAPMWDVFKTSTEKLANCHLDLVRKLQELIKEVQKYGEEQVKSHKKTKEEVAGTLEAVQAIQNITQALQKSKENYTAKCVEQERLKKEGATQREIEKAAVKSKKATDTYKLYVEKYALTKADFEQKMTETAQKFQDIEETHLIHIKEIIGSLSNAVKEIHLQIGQVHEEFINNMANTTIESLIQKFAESKGTGKERPGLIEFEECDPASAVEGIKPRKRKTFALPGIIKKEKDAESVECPDADSLNIPDVDEEGFSIKPEANQNDTKENHFYSSSDSDSEDEEPKRYRIEIKPAHPNNLHHTMASLDELKVSIGNITLSPAVSRHSPVQMNRNSSNEELTKSKPSSLPTEKGTNDLLAWDPLFGSSLESSSAPLTSSSSARPTTPLSLGTLVPPPRPASRPKLASGKLSGINEIPRPFSPPVTSNTSPPPTAPLARAESSSSISSSASLSAANTPTVGVSRGPSPVSLGNQDTLPVAIALTESVNAYFKGADPTKCIVKITGDVTISFPSGIIKVFTSNPSPAVLCFRVKNISRLEQILPNSQLVFSDPSQCDSNTKDFWMNMQAVTIYLKKLSEQNPAASYYNVDVLKYQVSSNGIQSTPLNLATYWKCSASTTDLRVDYKYNPEAMVAPSVLSNIQVVVPVDGGVTNMQSLPPAIWNAEQMKAFWKLSGISEKSDSGGSGSLRAKFDLSEGPSKPTTLAVQFLSEGNTLSGVDIELVGTGYRLSLVKKRFATGRYLADC
B3: endogenous Mon1a (protein, UniProt Q6PDG8 1-556)
chain: B1 chain

Key:
[1] = target: T1, FLAG-tagged Mon1a (mouse) (UniProt Q6PDG8); assay: co-IP
T1 sequence: B1 chain

c-myc-Fcho2 (mouse) = target: T2, c-myc-Fcho2 (mouse) (UniProt Q3UQN2); assay: co-IP
T2 sequence: B2 chain

binding [1]	binding (c-myc-Fcho2 (mouse))	Binder
binds	–	B1
binds	–	B2
–	binds	B3
